From PubChem BioAssay AID2685 (National Center for Advancing Translational Sciences (NCATS), 2010)
Some of the results follow. Shown are side measurements of this screen, not its main read-out; they come without a call. The list favours compounds with an active or inconclusive main result. Words in brackets tell the shape of the fitted curve; partial curves, single points and poor fits give uncertain potencies.

Experiment: qHTS Assay for Lipid Storage Modulators in Drosophila S3 Cells;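 as to cell number change: cells counted by Cell Tracker Red CMTPX staining in the red channel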
Settings: BODIPY lipid droplet fluorescence, 18-24 h; for cell number change: measured here: cell count max response, cells fed with added oleic acid
Method in brief: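 Drosophila S3 cells got compounds at several concentrations plus oleic acid (400 uM solution). Laser-scanning cytometry with 488 nm excitation read lipid droplets at 500-530 nm and cells at 575-640 nm. Percent activity was relative to 20 uM Triacsin C.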

[1] = measured here: lipid fluorescence (Fed channel) AC50, cells fed with added oleic acid
[2] = measured here: cell number channel AC50, cells fed with added oleic acid

## CCC(=O)Nc1cccc(C(=O)/C=C/c2cc(Br)ccc2OC)c1
  cell number change: -31.5%

## O=CNCCCc1nc2ccccc2n1Cc1ccccc1
  cell number change: -16.1%

## COc1ccc(NC(=O)c2c(C(F)(F)F)nn(C)c2SCc2ccccc2Cl)cc1
  cell number change: -2.88%
[1]
  AC50: 16.4 µM [falling, partial curve, poor fit]

## CCCCOC(=O)C(C#N)c1nc2ccccc2nc1N1CCN(Cc2ccc3c(c2)OCO3)CC1 (stereo not drawn)
  cell number change: 23.2%
[2]
  AC50: 0.092 µM [rising, full curve, poor fit]

## Cc1ccc(CNC(=O)COc2cccc3c2OC(C)(C)C3)cc1
[1]
  AC50: 3.26 µM [falling, single point]

## COc1ccc2c(c1)S/C(=C\C(=O)c1ccncc1)N2C
  cell number change: -2.5%
[1]
  AC50: 29.1 µM [falling, partial curve, poor fit]

## CC(C)NC(=O)CSc1ncccc1-c1nc2ccccc2[nH]1
  cell number change: -28.2%
[1]
  AC50: 0.0517 µM [falling, full curve, poor fit]

## Cc1c(C(=O)Nc2ccccc2F)cnn1-c1ccccc1
[1]
  AC50: 0.58 µM [rising, single point]

## O=[N+]([O-])c1ccc(N2CCCCC2)c(-c2nn[nH]n2)c1
  cell number change: -47.2%
[2]
  AC50: 29.1 µM [falling, single point]

## O=C(COC(=O)c1cccc2c1C(=O)c1ccccc1C2=O)NC1CCCCC1
  cell number change: -20%
[1]
  AC50: 20.6 µM [falling, single point]

## Cc1ccccc1S(=O)(=O)c1cc(C#N)c(=O)[nH]c1N
  cell number change: -7.87%

## Cc1cccc(NCC(=O)N/N=C/c2cccc(Br)c2)c1
  cell number change: -38%
[2]
  AC50: 14.6 µM [falling, single point]
[1]
  AC50: 29.1 µM [falling, single point]

## O=C(CSc1nnc(-c2ccccc2)o1)N1CCCCC1
  cell number change: 35.2%
[1]
  AC50: 29.1 µM [rising, single point]

## CN(C)c1nc(OCCNC(=O)Nc2ccccc2)nc(N(C)C)n1
  cell number change: -12.5%
[1]
  AC50: 1.03 µM [rising, partial curve, poor fit]

## CCOC(=O)C1=C(C)C(c2cccc(Oc3ccccc3)c2)NC(=S)N1 (stereo not drawn)
  cell number change: 10.1%
[1]
  AC50: 3.66 µM [rising, partial curve]

## COc1ccc(N=C2S/C(=C\c3cccs3)C(=O)N2CC(C)C)cc1
  cell number change: 32.4%
[2]
  AC50: 1.46 µM [rising, single point]

## CN(C1=C(NC(=O)c2ccc(Cl)cc2)C(=O)c2ccccc2C1=O)c1ccccc1
  cell number change: -70.6%
[2]
  AC50: 10.3 µM [falling, partial curve]
[1]
  AC50: 5.17 µM [falling, partial curve]

## COc1ccc2cc(C(=O)N3CCOCC3)sc(=O)c2c1OC
  cell number change: -1.14%
[1]
  AC50: 2.06 µM [rising, partial curve, poor fit]

## CCCNC(=O)C(Cc1cccc(C#N)c1)NC(=O)c1cccc([N+](=O)[O-])c1 (stereo not drawn)
  cell number change: -43.9%
[2]
  AC50: 29.1 µM [falling, single point]

## CCC1(c2ccccc2)NC(=O)N(CC(=O)Nc2ccccc2C(=O)NC2CCCC2)C1=O (stereo not drawn)
[1]
  AC50: 29.1 µM [rising, single point]

## S=c1[nH]nc(-c2ccccc2)n1C1C=CCCC1 (stereo not drawn)
  cell number change: -12.6%
[1]
  AC50: 29.1 µM [falling, single point]

## O=C(NCc1ccco1)C(c1ccccc1F)N(CC1CCCO1)C(=O)Cn1nnc2ccccc21 (stereo not drawn)
  cell number change: 31%
[2]
  AC50: 8.2 µM [rising, single point]
[1]
  AC50: 25.9 µM [rising, single point]

## c1ccc(Cn2nnc3c(NCc4ccc5c(c4)OCO5)nc(C4CC4)nc32)cc1
  cell number change: -14.5%
[1]
  AC50: 1.3 µM [rising, full curve]

## Cc1ccc(C(=O)N2CCN(c3ncccn3)CC2)c(C)c1
  cell number change: 27.8%
[1]
  AC50: 16.4 µM [rising, single point]

## O=C(COC(=O)CNC(=O)c1sc2ccccc2c1Cl)Nc1cc(Cl)cc(Cl)c1
  cell number change: 4.41%

## O=C(CSc1oc(-c2cccs2)nc1S(=O)(=O)c1ccc(F)cc1)NCC1CCCO1 (stereo not drawn)
  cell number change: 2.11%

## CCOc1ccccc1N=Cc1c(O)c2ccccc2oc1=O
  cell number change: 6.93%
[1]
  AC50: 5.8 µM [rising, single point]

## CC(Sc1nnc(-c2cccnc2)o1)C(=O)NC1CCCCC1 (stereo not drawn)
  cell number change: -8.94%
[1]
  AC50: 3.26 µM [rising, full curve, poor fit]

## Cn1c(=O)c(C(=O)COc2ccc(F)cc2Cl)c(N)n(Cc2ccccc2)c1=O
  cell number change: -136%
[2]
  AC50: 32.6 µM [falling, partial curve, poor fit]
[1]
  AC50: 29.1 µM [falling, partial curve]

## Cc1cccc(C)c1NC(=O)CNC(=O)CN1C(=O)NC2(CCc3ccccc32)C1=O (stereo not drawn)
  cell number change: 3.21%
[2]
  AC50: 6.51 µM [falling, single point]
[1]
  AC50: 2.31 µM [rising, partial curve]

## Cc1cc(SCC(=O)N2CCCC2)nc2ccccc12
  cell number change: -12.4%
[1]
  AC50: 0.259 µM [rising, full curve, poor fit]

## O=C(/C=C/c1ccccc1Cl)N(Cc1ccc(Cl)cc1)C1CCS(=O)(=O)C1 (stereo not drawn)
  cell number change: -0.25%

## Cc1nnc(-c2cccc(Br)c2)c2cn(-c3ccc(Br)cc3)nc12
  cell number change: 17.8%

## CC(=O)Nc1nnc(SCC(=O)Nc2ccc3c(c2)OCCO3)s1
  cell number change: 19.5%

## Cc1cc(C)cc(Nc2nc3ccc(C)cc3n3cnnc23)c1
  cell number change: -24.6%
[1]
  AC50: 32.6 µM [falling, single point]

## Cc1ccc(NC(=O)c2ccccc2OCC(=O)Nc2ccccc2F)cc1S(=O)(=O)N(C)C
  cell number change: 9.55%
[1]
  AC50: 0.731 µM [rising, single point]

## COC(=O)c1c(NC(=O)COC(=O)c2ccccc2O)sc2c1CCCCC2
  cell number change: 175%
[2]
  AC50: 5.8 µM [rising, full curve]
[1]
  AC50: 5.8 µM [rising, full curve]

## C#CCOCCOCCOCCNc1nc(N2CCN(C(=O)CCCCCCCCCCNC(=O)Cn3cc(C[C@@H](C)O)nn3)CC2)nc(N2CCN(C(=O)CCCCCCCCCCNC(=O)[C@@H](CCC(=O)O)n3cc(CCCCCN)nn3)CC2)n1
  cell number change: -14.9%
[1]
  AC50: 6.51 µM [falling, single point]

## O=C(CSc1n[nH]c(-c2cccnc2)n1)Nc1cccc(Cl)c1
  cell number change: -9.52%
[1]
  AC50: 6.51 µM [rising, single point]

## CCN(CC)CCNC(=O)c1ccc(NC(=O)C2CC(=O)N(c3ccc4c(c3)OCCO4)C2)cc1 (stereo not drawn)
  cell number change: -18.9%

## COc1ccc(OC)c(NC(=O)C2CCCN2C(=O)NC2CCCCC2)c1 (stereo not drawn)
  cell number change: 6.72%

## Cc1ccccc1-c1nnc(SC(C)C(=O)NC2CCCC2)o1 (stereo not drawn)
  cell number change: 12.8%
[1]
  AC50: 0.13 µM [falling, full curve, poor fit]

## O=S(=O)(c1ccccc1Cl)N1CCCC1c1nc(-c2cccc(Cl)c2)no1 (stereo not drawn)
[2]
  AC50: 6.51 µM [falling, single point]

## COc1ccc2ccccc2c1CN1CCN(C)CC1
  cell number change: 3.37%
[1]
  AC50: 6.51 µM [rising, single point]

## CCn1nc(C)cc1C(=O)N1CCCC(Nc2ccc(C(C)C)cc2)C1 (stereo not drawn)
[1]
  AC50: 0.651 µM [falling, full curve]

## Nc1cc(S(=O)(=O)Nc2cc(Cl)ccc2Cl)ccc1N1CCCC1
  cell number change: 6.43%
[1]
  AC50: 18.4 µM [rising, single point]

## O=C(Cn1cncn1)c1ccc(F)cc1F
  cell number change: 28.7%
[1]
  AC50: 3.66 µM [falling, single point]

## O=C(Cn1c(=O)cnc2ccccc21)NNC(=O)c1ccccc1Cl
  cell number change: 3.49%
[1]
  AC50: 23.1 µM [rising, single point]

## CC(=O)c1nn(-c2cccc(Br)c2)cc1C(=O)c1cccc2ccccc12
  cell number change: 22.7%
[2]
  AC50: 0.651 µM [rising, partial curve]
[1]
  AC50: 0.651 µM [rising, single point]

## Cc1nccc(-c2ccc(-n3cnc4ccccc43)cc2)n1
  cell number change: 36.5%
[2]
  AC50: 0.58 µM [rising, full curve]
[1]
  AC50: 2.31 µM [rising, partial curve]

## CC(C)N(C)S(=O)(=O)c1ccc(Cl)c(C(=O)O)c1
  cell number change: 63.1%

## COc1ccc(-c2c(-c3cc(OC)cc(OC)c3)n(C)c3ccc(Br)cc23)cc1
  cell number change: 17.6%
[1]
  AC50: 0.164 µM [rising, full curve, poor fit]

## CC(=O)c1ccc(NC(=O)CN2CCN(S(=O)(=O)c3ccc4ccccc4c3)CC2)cc1
  cell number change: 8.77%
[1]
  AC50: 0.00517 µM [rising, full curve, poor fit]

## Cc1ccccc1OCC(=O)OCC(=O)Nc1cc(S(=O)(=O)N2CCCCC2)ccc1Cl
  cell number change: 4.66%
[2]
  AC50: 6.51 µM [falling, single point]

## Cn1cccc1Cc1nnc(SCC(=O)NCc2ccccc2)n1-c1ccc(F)cc1
  cell number change: -14.1%
[1]
  AC50: 6.51 µM [rising, single point]

## CCOc1cc(C(=O)N2CCCN(C)CC2)cc(OCC)c1OCC
  cell number change: 1.35%
[2]
  AC50: 7.31 µM [falling, single point]

## CCOc1ccc(CCNC(=O)COC(=O)c2c(C)nn(-c3ccccc3)c2C)cc1OCC
  cell number change: -33%
[2]
  AC50: 14.6 µM [falling, single point]
[1]
  AC50: 7.31 µM [falling, partial curve]

## O=C(Nc1cccc2cccnc12)c1cccnc1
  cell number change: 0.219%
[1]
  AC50: 14.6 µM [rising, partial curve, poor fit]

## Cc1c(C(=O)Nc2ccccc2)cn2c(nc3ccccc32)c1C#N
  cell number change: 3.34%
[1]
  AC50: 29.1 µM [rising, single point]

## CC1CN(S(=O)(=O)c2ccc(C(=O)NN3CCN(C)CC3)cc2)CC(C)O1 (stereo not drawn)
[2]
  AC50: 6.51 µM [rising, single point]
[1]
  AC50: 0.116 µM [falling, full curve, poor fit]
